Some entries share one result that the patent states for a list of compounds.
What follows are compounds tested against T1, PPARalpha (Homo sapiens, UniProt Q07869) (assay: Cellular PPARalpha assay (stably transfected HEK luciferase reporter cell line)). Conditions: units printed in the value: nM to μM; read-out: PPARalpha EC50 values (range over the examples).
T1 construct: human PPARalpha receptor (amino acids S167-Y468); expressed in transfected cells; host or cells: HEK (human embryo kidney) cells, stably transfected; pcDNA3 vector, CMV promoter
T1 sequence (Q07869 167-468): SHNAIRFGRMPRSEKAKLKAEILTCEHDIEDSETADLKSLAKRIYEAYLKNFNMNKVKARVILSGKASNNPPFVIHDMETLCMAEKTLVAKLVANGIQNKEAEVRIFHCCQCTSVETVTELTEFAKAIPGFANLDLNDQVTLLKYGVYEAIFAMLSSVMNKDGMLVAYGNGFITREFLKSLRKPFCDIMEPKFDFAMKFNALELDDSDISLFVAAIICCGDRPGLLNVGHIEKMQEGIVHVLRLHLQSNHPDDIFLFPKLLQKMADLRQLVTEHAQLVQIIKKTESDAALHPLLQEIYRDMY
Type: cell-based
Protocol: Determination of EC50 Values of PPAR agonists in the Cellular PPARalpha Assay
The potency of substances which bind to human PPARA and activate in an agonistic manner is analyzed using a stably transfected HEK cell line (HEK =human embryo kidney) which is referred to here as PPARalpha reporter cell line. It contains two genetic elements, a luciferase reporter element (pδM-GAL4-Luc-Zeo) and a PPARalpha fusion protein (GR-GAL4-humanPPARα-LBD) which mediates expression of the luciferase reporter element depending on a PPARalpha ligand. The stably and constitutively expressed fusion protein GR-GAL4-humanPPARalpha-LBD binds in the cell nucleus of the PPARalpha reporter cell line via the GAL4 protein portion to the GAL4 DNA binding motifs 5′-upstream of the luciferase reporter element which is integrated in the genome of the cell line. There is only little expression of the luciferase reporter gene without addition of a PPARalpha ligand if fatty acid-depleted fetal calf serum (cs-FCS) is used in the assay. PPARα ligands bind and activate the PPARα fusion protein and thereby bring about expression of the luciferase reporter gene. The luciferase which is formed can be detected by means of chemiluminescence via an appropriate substrate.
The PPARalpha reporter cell line was prepared in 2 stages. Firstly, the luciferase reporter element was constructed and stably transfected into HEK cells. For this purpose, five binding sites of the yeast transcription factor GAL4 (each 5′-CGGAGTACTGTCCTCCGAG-3′) (SEQ ID No. 1) were cloned in 5′-upstream of a 68 bp-long minimal MMTV promoter (Genbank Accession # V01 175). The minimal MMTV promoter section contains a CCAAT box and a TATA element in order to enable efficient transcription by RNA polymerase 11. The cloning and sequencing of the GAL4-MMTV construct took place in analogy to the description of Sambrook J. et. al. (Molecular cloning, Cold Spring Harbor Laboratory Press, 1989). Then the complete Photinus pyralis gene (Genbank Accession # M15077) was cloned in 3′-downstream of the GAL4-MMTV element. After sequencing, the luceriferase reporter element consisting of five GAL4 binding sites, MMTV promoter and luciferase gene was recloned into a plasmid which confers zeocin resistance in order to obtain the plasmid pδM-GAL4-Luc-Zeo. This vector was transfected into HEK cells in accordance with the statements in Ausubel, F. M. et al. (Current protocols in molecular biology, Vol. 1-3, John Wiley & Sons, Inc., 1995).
In a second step, the PPARalpha fusion protein (GR-GAL4-humanPPARalpha-LBD was introduced into the stable cell clone described. For this purpose, initially the cDNA coding for the N-terminal 76 amino acids of the glucocorticoid receptor (Genbank Accession # P04150) was linked to the cDNA section coding for amino acids 1-147 of the yeast transcription factor GAL4 (Genbank Accession # P04386). The cDNA of the ligand-binding domain of the human PPARalpha receptor (amino acids S167-Y468; Genbank Accession # S74349) was cloned in at the 3′-end of this GR-GAL4 construct. The fusion construct prepared in this way (GR-GAL4-humanPPARalpha-LBD) was recloned into the plasmid pcDNA3 (from Invitrogen) in order to enable constitutive expression therein by the cytomegalovirus promoter. This plasmid was linearized with a restriction endonuclease and stably transfected into the previously described cell clone containing the luciferase reporter element. The finished PPARalpha reporter cell line which contains a luciferase reporter element and constitutively expresses the PPARalpha fusion protein (GR-GAL4-human PPARalpha-LBD) was isolated by selection with zeocin (0.5 mg/ml) and G418 (0.5 mg/ml).
The activity of PPARalpha agonists is determined in a 3-day assay which is described below: […]

SMILES | EC50 [nM]
COC(CO[C@@H]1CCC[C@H](OCc2nc(-c3cccc(OC(F)(F)F)c3)oc2C)C1)C(=O)O (stereo partly drawn) [Example 30, 2-Methoxy-3-{(1R,3S)-3-[5-methyl-2-(3-trifluoromethoxyphenyl)oxazol4-yl-methoxy]cyclohexyloxy}propionic acid] | ≥ 0.6
COC(CO[C@@H]1CCC[C@H](OCc2nc(-c3ccccc3)oc2C)C1)C(=O)O (stereo partly drawn) [Example 28, 2-Methoxy-3-[(1R,3S)-3-(5-methyl-2-phenyloxazol-4-ylmethoxy)cyclohexyloxy]-propanoic acid] | ≥ 0.6
Cc1cccc(-c2nc(CO[C@H]3CCC[C@@H](OCC(Cc4ccc(F)c(C)c4)C(=O)O)C3)c(C)o2)c1 (some centres unmarked) [Example 9, (2R/S)-(4-Fluoro-3-methylbenzyl)-(1R′,3S′)-3-[3-(5-methyl-2-m-tolyloxazol-4-yl-methoxy)cyclohexyloxy]propionic acid] | ≥ 0.6
Cc1cccc(-c2nc(CO[C@H]3CCC[C@@H](OCC(OC/C=C/c4ccccc4)C(=O)O)C3)c(C)o2)c1 (stereo partly drawn) [Example 25, 3-[(1R,3S)-3-(5-Methyl-2-m-tolyloxazol-4-ylmethoxy)cyclohexyloxy]-2-(3-phenyl-2-propenyloxy)propionic acid] | ≥ 0.6
Cc1ccc(-c2nc(CO[C@H]3CCC[C@@H](OC[C@@H](OCc4ccc(C(F)(F)F)cc4)C(=O)O)C3)c(C)o2)cc1 [Example 81, (R)-3-[(1R,3S)-3-(5-Methyl-2-(4-methylphenyl)oxazol-4-ylmethoxy)cyclohexyloxy]-2-(4-trifluoromethylbenzyloxy)propionic acid] | ≥ 0.6
COC(CO[C@@H]1CCC[C@H](OCc2nc(-c3cccc(C(F)(F)F)c3)oc2C)C1)C(=O)O (stereo partly drawn) [Example 29, 2-Methoxy-3-{(1R,3S)-3-[5-methyl-2-(3-trifluoromethylphenyl)oxazol-4-ylmethoxy]-cyclohexyloxy}propionic acid] | ≥ 0.6
CCCOC(CO[C@@H]1CCC[C@H](OCc2nc(-c3ccc4ccccc4c3)oc2C)C1)C(=O)O (stereo partly drawn) [Example 51, 3-{(1R,3S)-3-[5-Methyl-2-(2-naphthylphenyl)oxazol-4-ylmethoxy]cyclohexyloxy}-2-propoxypropionic acid] | ≥ 0.6
CCOC(CO[C@@H]1CCC[C@H](OCc2nc(-c3ccccc3)oc2C)C1)C(=O)O (stereo partly drawn) [Example 70, 2-Ethoxy-3-{(1R,3S)-3-[5-methyl-2-phenyloxazol-4-ylmethoxy]cyclohexyloxy}-propionic acid] | ≥ 0.6
COC(CO[C@@H]1CCC[C@H](OCc2nc(-c3ccc(C(F)(F)F)cc3)oc2C)C1)C(=O)O (stereo partly drawn) [Example 31, 2-Methoxy-3-{(1R,3S)-3-[5-methyl-2-(4-trifluoromethylphenyl)oxazol-4-ylmethoxy]-cyclohexyloxy}propionic acid] | ≥ 0.6
COc1cccc(-c2nc(CO[C@H]3CCC[C@@H](OC[C@@H](OCc4ccc(C(F)(F)F)cc4)C(=O)O)C3)c(C)o2)c1 [Example 84, (R)-3-[(1R,3S)-3-(5-Methyl-2-(3-methoxyphenyl)oxazol-4-ylmethoxy)cyclohexyl-oxy]-2-(4-trifluoromethylbenzyloxy)propionic acid] | ≥ 0.6
CCCOC(CO[C@@H]1CCC[C@H](OCc2nc(-c3ccc(C)cc3)oc2C)C1)C(=O)O (stereo partly drawn) [Example 47, 3-{(1R,3S)-3-[5-Methyl-2-(4-methylphenyl)oxazol-4-ylmethoxy]cyclohexyloxy}-2-propoxypropionic acid] | ≥ 0.6
CCc1oc(-c2cccc(OC)c2)nc1CO[C@H]1CCC[C@@H](OCC(OC)C(=O)O)C1 (stereo partly drawn) [Example 38, 2-Methoxy-3-{(1R,3S)-3-[5-ethyl-2-(3-methoxyphenyl)oxazol4-ylmethoxy]-cyclo-hexyloxy}propionic acid] | ≥ 0.6
Cc1cccc(-c2nc(CO[C@H]3CCC[C@@H](OCC(CN(C)Cc4ccccc4)C(=O)O)C3)c(C)o2)c1 (stereo partly drawn) [Example 7, (1R′,3S′)-2R/S-[(Benzylmethylamino)methyl]-3-[3-(5-methyl-2-m-tolyloxazol-4-yl-methoxy)cyclohexyloxy]propionic acid] | ≥ 0.6
CCOC(CO[C@@H]1CCC[C@H](OCc2nc(-c3ccccc3C(F)(F)F)oc2CC)C1)C(=O)O (stereo partly drawn) [Example 67, 2-Ethoxy-3-[(1R,3S)-3-(5-ethyl-2-(2-trifluoromethylphenyl)oxazol-4-ylmethoxy)-cyclohexyloxy]propionic acid] | ≥ 0.6
CCCOC(CO[C@@H]1CCC[C@H](OCc2nc(-c3ccc(OC(F)(F)F)cc3)oc2C)C1)C(=O)O (stereo partly drawn) [Example 48, 3-{(1R,3S)-3-[5-Methyl-2-(4-trifluoromethoxyphenyl)oxazol-4-ylmethoxy]cyclo-hexyloxy}-2-propoxypropionic acid] | ≥ 0.6
Cc1cccc(-c2nc(COC[C@H]3CCC[C@@H](OC[C@H](OCc4ccc(C(F)(F)F)cc4)C(=O)O)C3)c(C)o2)c1 [Example 89, (S)-3-[(1R,3S)-3-(5-Methyl-2-m-tolyloxazol4-ylmethoxymethyl)cyclohexyloxy]-2-(4-trifluoromethylbenzyloxy)propionic acid] | ≥ 0.6
CCCOC(CO[C@@H]1CCC[C@H](OCc2nc(-c3ccc(C)cc3)oc2CC)C1)C(=O)O (stereo partly drawn) [Example 54, 3-{(1R,3S)-3-[5-Ethyl-2-(4-methylphenyl)oxazol-4-ylmethoxy]cyclohexyloxy}-2-propoxypropionic acid] | ≥ 0.6
CC#CCOC(CO[C@@H]1CCC[C@H](OCc2nc(-c3cccc(C)c3)oc2C)C1)C(=O)O (stereo partly drawn) [Example 21, 3-[(1R,3S)-3-(5-Methyl-2-m-tolyloxazol-4-ylmethoxy)cyclohexyloxy]-2-(2-butynyl-oxy)propionic acid] | ≥ 0.6
CCCOC(CO[C@@H]1CCC[C@H](OCc2nc(-c3cccc(C(F)(F)F)c3)oc2C)C1)C(=O)O (stereo partly drawn) [Example 52, 3-{(1R,3S)-3-[5-Methyl-2-(3-trifluoromethylphenyl)oxazol-4-ylmethoxy]cyclohexyl-oxy}-2-propoxypropionic acid] | ≥ 0.6
Cc1cccc(-c2nc(CO[C@H]3CCC[C@@H](OCC4(C(=O)O)CC4)C3)c(C)o2)c1 [Example 5, (1R,3S)-1-[3-(5-methyl-2-m-tolyloxazol-4-ylmethoxy)cyclohexyloxymethyl]cyclo-propanecarboxylic acid] | ≥ 0.6
CCCOC(CO[C@@H]1CCC[C@H](OCc2nc(-c3ccc(C(C)C)cc3)oc2C)C1)C(=O)O (stereo partly drawn) [Example 49, 3-{(1R,3S)-3-[5-Methyl-2-(4-isopropylphenyl)oxazol-4-ylmethoxy]cyclohexyloxy}-2-propoxypropionic acid] | ≥ 0.6
CCOC(CO[C@@H]1CCC[C@H](OCc2nc(-c3ccc(C(C)C)cc3)oc2C)C1)C(=O)O (stereo partly drawn) [Example 61, 2-Ethoxy-3-{(1R,3S)-3-[5-methyl-2-(4-isopropylphenyl)oxazol-4-ylmethoxy]cyclo-hexyloxy}propionic acid] | ≥ 0.6
Cc1cccc(-c2nc(CO[C@H]3CCC[C@@H](OC[C@@H](OCc4ccc(C(F)(F)F)cc4)C(=O)O)C3)c(C)o2)c1 [Example 76, (R)-3-[(1R,3S)-3-(5-Methyl-2-m-tolyloxazol4-ylmethoxy)cyclohexyloxy]-2-(4-tri-fluoromethylbenzyloxy)propionic acid] | ≥ 0.6
